Measurements: patent publication US20190225662A1
These are yes or no findings as the source states them, for the method shown. Some results given as binding are weak or reduced against the parent protein; the word gives no strength.

Sequences of proteins named here, by UniProt entry; tags and fusion partners are left off. A change or cut given only in a name is not applied to a line headed by its entry. Residues count along the entry.
UniProt Q9UBS5, residues 26-160: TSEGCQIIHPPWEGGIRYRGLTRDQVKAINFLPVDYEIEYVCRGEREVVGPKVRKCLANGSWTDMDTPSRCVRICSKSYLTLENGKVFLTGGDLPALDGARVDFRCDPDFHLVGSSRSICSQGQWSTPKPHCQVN
UniProt P12023: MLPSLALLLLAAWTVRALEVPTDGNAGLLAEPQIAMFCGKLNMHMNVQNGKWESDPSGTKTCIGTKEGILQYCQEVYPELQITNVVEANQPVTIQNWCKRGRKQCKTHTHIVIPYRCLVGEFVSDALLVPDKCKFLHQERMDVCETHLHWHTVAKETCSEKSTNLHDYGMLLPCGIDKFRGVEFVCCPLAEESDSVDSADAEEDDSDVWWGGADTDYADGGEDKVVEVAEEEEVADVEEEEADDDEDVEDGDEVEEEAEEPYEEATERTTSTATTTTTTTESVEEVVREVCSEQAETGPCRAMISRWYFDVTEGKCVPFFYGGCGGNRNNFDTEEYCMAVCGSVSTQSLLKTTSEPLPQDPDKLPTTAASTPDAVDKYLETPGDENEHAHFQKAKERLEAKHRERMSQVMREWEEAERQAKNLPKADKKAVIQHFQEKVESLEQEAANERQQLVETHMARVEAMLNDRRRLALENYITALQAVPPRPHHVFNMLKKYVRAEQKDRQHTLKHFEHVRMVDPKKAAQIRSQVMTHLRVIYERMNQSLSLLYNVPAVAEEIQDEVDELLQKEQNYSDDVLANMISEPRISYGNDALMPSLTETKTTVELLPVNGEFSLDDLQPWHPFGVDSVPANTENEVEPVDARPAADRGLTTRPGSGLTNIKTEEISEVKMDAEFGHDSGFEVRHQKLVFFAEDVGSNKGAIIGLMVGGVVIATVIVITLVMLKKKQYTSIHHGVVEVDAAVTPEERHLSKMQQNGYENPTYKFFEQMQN

Key:
[1] = molecular target: sushi domains of GABABR1a (protein used in BioLayer Interferometry) (UniProt Q9UBS5); assay: BioLayer Interferometry
[2] = molecular target: sushi domains of GABABR1a (protein used in BioLayer Interferometry) (UniProt Q9UBS5); assay: BioLayer Interferometry; which partner is on the sensor and the concentrations are not given

With “sAPPα (Fc cleaved) (from UniProt P12023 18-687) (ligand)” the binding [1] was “binds” and the binding [2] was “binds”.
